Test results taken from US20260092086A1, “ANTIMICROBIAL LASSO PEPTIDES” (priority 2022, published 2026).
Not every detail of the peptide structures is certain; ends, links or a residue may be inferred. Where a SMILES comes first, the peptide text is derived from it.

Key:
[1] = system: Enterobacter amnigenus ATCC 33072; type: cell-based; conditions: peptides tested at 10 μM, inhibition diameter (FIG. 28)
Procedure: (§1) Cloacaenodin was evaluated against several common laboratory strains as well as commercially acquired strains using a spot-on-lawn assay.^45 Strains were streaked out onto LB agar plates and incubated overnight at their recommended temperatures. A single colony was then used to inoculate an overnight culture in 5 mL of LB broth. After shaking at 250 rpm at the recommended temperature for each strain, 50 μL of the overnight culture was used to inoculate 5 mL of LB broth (volume ratio 1:100). These cultures were grown for a few hours until they reached the exponential phase (OD600˜0.4-0.6) before being added to 10 mL of soft M63 agar at a final cell density of 10^7 CFUs/mL, or 10^8 CFUs total in 10 mL. The M63 soft agar was composed of 2 g/L of (NH4)2SO4 (EMD MilliporeSigma), 13.6 g/L of KH2PO4 (Fisher), 40 mg/L of each of the 20 common amino acids, 0.2% glucose (Sigma), 0.00005% w/v thiamine hydrochloride (Sigma), and 0.65% w/v bacteriological-grade agar (Apex Bioresearch). […] Upon solidification, 10 μL of purified cloacaenodin in water at two-fold dilutions were then spotted onto the agar and allowed to dry. The plates were incubated overnight at the strains' recommended temperatures and analyzed the next morning for activity. The MIC is defined as the last dilution where a spot was visible.

[2] = system: Enterobacter cloacae ATCC 13047; type: cell-based; conditions: peptide at a concentration of 15 μM; listed as unthreaded peptide
Procedure: as §1

Structure (SMILES)	bioactivity against Enterobacter amnigenus compared to wild-type [1]	activity against Enterobacter cloacae [2]
CC[C@H](C)[C@@H]1NC(=O)[C@H](CCCNC(=N)N)NC(=O)[C@H](CC(=O)O)NC(=O)[C@H](C(C)C)NC(=O)[C@H](CO)NC(=O)[C@H](Cc2c[nH]cn2)NC(=O)CNC(=O)CC[C@@H](C(=O)N[C@@H](Cc2ccc(O)cc2)C(=O)N[C@@H](Cc2ccccc2)C(=O)NCC(=O)N2CCC[C@H]2C(=O)N2CCC[C@H]2C(=O)NCC(=O)N[C@@H](CC(C)C)C(=O)N2CCC[C@H]2C(=O)NCC(=O)N2CCC[C@H]2C(=O)N[C@H](C(=O)N[C@@H](CC(C)C)C(=O)N[C@@H](Cc2ccccc2)C(=O)N[C@@H](Cc2ccc(O)cc2)C(=O)NCC(=O)O)C(C)C)NC(=O)[C@@H]2CCCN2C1=O [Cloacaenodin S24G] (HELM PEPTIDE1{G.H.S.V.D.R.I.P.E.Y.F.G.P.P.G.L.P.G.P.V.L.F.Y.G}$PEPTIDE1,PEPTIDE1,1:R1-9:R3$$$V2.0; C-terminus assumed; bridges inferred)	lost its bioactivity	
CC[C@H](C)[C@@H]1NC(=O)[C@H](CCCNC(=N)N)NC(=O)[C@H](CC(=O)O)NC(=O)[C@H](C(C)C)NC(=O)[C@H](CO)NC(=O)[C@H](Cc2c[nH]cn2)NC(=O)CNC(=O)CC[C@@H](C(=O)N[C@@H](Cc2ccc(O)cc2)C(=O)N[C@@H](Cc2ccccc2)C(=O)NCC(=O)N2CCC[C@H]2C(=O)N2CCC[C@H]2C(=O)NCC(=O)N[C@@H](CC(C)C)C(=O)N2CCC[C@H]2C(=O)NCC(=O)N2CCC[C@H]2C(=O)N[C@H](C(=O)N[C@@H](CC(C)C)C(=O)N[C@@H](Cc2ccccc2)C(=O)N[C@@H](Cc2ccc(O)cc2)C(=O)N[C@@H](CO)C(=O)O)C(C)C)NC(=O)[C@@H]2CCCN2C1=O [unthreaded cloacaenodin] (HELM PEPTIDE1{G.H.S.V.D.R.I.P.E.Y.F.G.P.P.G.L.P.G.P.V.L.F.Y.S}$PEPTIDE1,PEPTIDE1,1:R1-9:R3$$$V2.0; C-terminus assumed; bridges inferred)		no activity
